Measured values taken from patent US20240270741A1 (Cogent Biosciences, Inc., priority 2023, published 2024).

Sequences of proteins named here, by UniProt entry; tags and fusion partners are left off. Residues count along the entry.
UniProt P21802, 399-821 limits assumed: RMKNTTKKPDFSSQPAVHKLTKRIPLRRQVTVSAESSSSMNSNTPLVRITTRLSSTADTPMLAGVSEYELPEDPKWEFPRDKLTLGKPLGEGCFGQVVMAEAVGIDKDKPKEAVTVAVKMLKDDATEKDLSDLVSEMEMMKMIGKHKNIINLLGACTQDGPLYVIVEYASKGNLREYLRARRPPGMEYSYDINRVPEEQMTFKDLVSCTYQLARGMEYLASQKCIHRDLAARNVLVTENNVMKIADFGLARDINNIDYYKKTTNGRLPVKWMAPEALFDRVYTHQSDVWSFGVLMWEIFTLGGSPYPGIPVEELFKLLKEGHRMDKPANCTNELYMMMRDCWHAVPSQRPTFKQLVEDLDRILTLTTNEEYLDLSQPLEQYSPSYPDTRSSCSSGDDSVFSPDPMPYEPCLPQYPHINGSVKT

Molecular target: FGFR2 (Homo sapiens, UniProt P21802)
Assay: FGFR wild type enzyme assay (HTRF KinEASE-TK), FGFR2
Settings: read-out: Enz FGFR2

**Q.** `COC(=O)N1CCC[C@H](n2cc(-c3cc(Sc4ccccc4C#N)c4c(C#N)cnn4c3)c(C)n2)C1` was tested. Which IC50 did it give?
**A.** Its IC50 is 5 nM.

**Q.** How did the IC50 turn out when `CC(=O)N1CCC[C@H](n2cc(-c3cc(Sc4ccccc4C#N)c4c(C#N)cnn4c3)c(C)n2)C1` was run?
**A.** Its IC50 is 2.5 nM.

**Q.** For `COC(=O)N1CCC[C@H](n2cc(-c3cc(Sc4ccc(F)cc4C#N)c4c(C#N)cnn4c3)c(C)n2)C1`, which IC50 is on record?
**A.** Its IC50 is 11 nM.

**Q.** Which IC50 does the source give for `Cc1nn([C@H]2CCCN(C(=O)CO)C2)cc1-c1cc(Sc2ccccc2C#N)c2c(C#N)cnn2c1` here?
**A.** The IC50 was 2.5 nM.

The structures given here were assigned with low confidence; some may be wrong.
